# From article PMC5996148
# Some of the results follow.
# Assays:
# Assay in all cases: protein microarray (ProtoArray v5.0), streptavidin-Alexa Fluor 647
# Conditions in all cases: 3'-biotin; 20 mM Tris (pH 7.5), 5 mM MgCl2, 100 mM KCl, 0.1% Tween-20, A/T-rich and random oligonucleotide blockers; temperature not stated; high values mean tight binding
# Sequestosome-1 (human) = tested on: Sequestosome-1 (human)
# [1] = tested on: Serine/threonine-protein kinase 12 (human)
# [2] = tested on: Serine/threonine-protein kinase MRCK alpha (human)
# [3] = tested on: Serine/threonine-protein kinase ULK4 (human)
# [4] = tested on: Serine/threonine-protein kinase VRK2 (human)
# [5] = tested on: Serine/threonine-protein kinase VRK3 (human)
# [6] = tested on: Serine/threonine-protein phosphatase 2A 56 kDa regulatory subunit gamma isoform (human)
# [7] = tested on: Serine/threonine-protein phosphatase 2A 65 kDa regulatory subunit A beta isoform (human)
# [8] = tested on: Serologically defined colon cancer antigen 3 (human)
# Serum albumin (human) = tested on: Serum albumin (human)
sequence,measurement,setting,value
GGGGACAGGGGTATGGGGAGGGG [G4-3 biotinylated (CtG)],binding signal,Sequestosome-1 (human),-0.305 z-score
same,binding signal,[1],5.47 z-score
same,binding signal,[2],-0.337 z-score
same,binding signal,[3],-0.312 z-score
same,binding signal,[4],3.28 z-score
same,binding signal,[5],3.14 z-score
same,binding signal,[6],-0.336 z-score
same,binding signal,[7],-0.337 z-score
same,binding signal,[8],-0.326 z-score
same,binding signal,Serum albumin (human),-0.331 z-score
